# From PubChem BioAssay AID504327 (National Center for Advancing Translational Sciences (NCATS), 2011)
# Chains of the proteins cited; added tags and fusions are not shown.
# UniProt Q92830, whole entry, looked up: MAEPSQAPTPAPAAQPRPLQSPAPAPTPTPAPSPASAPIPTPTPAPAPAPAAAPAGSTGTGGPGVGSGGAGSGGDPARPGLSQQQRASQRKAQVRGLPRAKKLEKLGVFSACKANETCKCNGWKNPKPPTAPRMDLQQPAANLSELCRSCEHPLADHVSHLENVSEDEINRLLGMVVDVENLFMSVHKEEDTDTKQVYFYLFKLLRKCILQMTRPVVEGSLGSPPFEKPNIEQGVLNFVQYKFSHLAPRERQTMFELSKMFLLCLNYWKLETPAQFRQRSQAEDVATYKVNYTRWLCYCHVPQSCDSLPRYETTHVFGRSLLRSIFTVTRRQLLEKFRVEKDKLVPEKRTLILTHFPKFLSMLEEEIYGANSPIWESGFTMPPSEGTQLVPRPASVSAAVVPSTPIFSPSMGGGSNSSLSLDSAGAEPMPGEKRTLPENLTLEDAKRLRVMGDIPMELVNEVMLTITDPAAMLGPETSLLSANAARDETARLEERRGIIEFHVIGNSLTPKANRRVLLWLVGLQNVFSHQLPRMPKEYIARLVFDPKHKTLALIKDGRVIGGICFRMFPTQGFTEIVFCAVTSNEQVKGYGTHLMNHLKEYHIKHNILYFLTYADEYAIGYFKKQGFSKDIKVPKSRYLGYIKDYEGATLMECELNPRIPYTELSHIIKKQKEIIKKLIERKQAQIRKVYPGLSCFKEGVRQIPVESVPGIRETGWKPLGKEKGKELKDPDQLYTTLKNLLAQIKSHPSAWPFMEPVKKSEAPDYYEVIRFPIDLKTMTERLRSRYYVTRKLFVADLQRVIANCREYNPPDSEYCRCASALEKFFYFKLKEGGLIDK
# Where “and” joins values, the source holds several entries; their conditions need not be identical. Equal entries are not always repeated. In all, about 390,000 compounds went through this assay and about 820 (0.21%) were called active. Inconclusive results, whose numbers are uncertain, are shown with a selection of clear calls. Calls follow the shape of the dose curve; as a rule, active = well fitted inhibition curve with a large enough effect; inconclusive = small, poorly fitted or top-dose-only effect, or another doubt; inactive = no such curve, though single readings can be large or run the other way. Where the call is inconclusive, the potency comes from a doubtful curve fit.
# Target: Histone acetyltransferase KAT2A (Homo sapiens) (UniProt Q92830)
# Assay: qHTS Assay for Inhibitors of GCN5L2
# Conditions: GCN5L2 HAT assay, ThioGlo1 CoA-SH fluorescence; series mostly up to 58.9 µM
# Method in brief: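 Fluorescence readout, Ex340nm/Em540nm: ThioGlo1 (50uM final) reacts with free CoA thiol released as 20nM GCN5L2 acetylates H3(1-25) peptide (75uM) using acetyl-CoA (70uM). Compound and enzyme sat 15 min beforehand; 20 min room-temperature reaction.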
# Potency is read from the fitted curve at half-maximal effect.
row,Structure (SMILES),Potency
1,O=C(/C=C/c1ccc(Cl)cc1Cl)NCCN1CCOCC1,"inconclusive: 2.24 µM [inhibitor, partial curve]"
2,Cn1cnc(Sc2ncnc3nc[nH]c23)c1[N+](=O)[O-],"inconclusive: 39.8 µM [inhibitor, single point]"
3,COc1ccc(C(=O)Nc2c(C)cc(C)cc2C)cc1OC,"inconclusive: 35.5 µM [inhibitor, single point]"
4,COc1ccccc1-c1cc(Nc2ccn[nH]2)ncn1,"inconclusive: 25.1 µM [inhibitor, single point]"
5,CC(C)OCCCNc1ncnc2c1[nH]c1ccc(F)cc12,"inconclusive: 0.708 µM [inhibitor, single point]"
6,Cc1c(O)ccc2cc(S(=O)(=O)c3ccccc3)c(=O)oc12,"inconclusive: 25.1 µM [inhibitor, single point]"
7,O=c1c(OC2OC(CO)C(O)C(O)C2OC2OC(CO)C(O)C(O)C2O)c(-c2ccc(O)cc2)oc2cc(O)cc(O)c12 (centres undefined),"inconclusive: 31.6 µM [inhibitor, single point]"
8,O=C(N/N=C/c1cccc(C(F)(F)F)c1)c1cc2c(s1)-c1ccccc1CC2,"inconclusive: 35.5 µM [inhibitor, single point]"
9,Cc1ccc(NNC2CC(=O)N(c3cccc(Cl)c3)C2=O)cc1 (centres undefined),"inconclusive: 10 µM [inhibitor, partial curve, poor fit]"
10,CCCCCCSc1cccc(-c2nc3ccc(Cl)cn3c2NCc2ccccc2)c1,inactive
11,Cc1cc(N2C(=O)C=CC2=O)c([N+](=O)[O-])cc1C,active: 20 µM
12,CC(C)n1c2ccccc2c2nnc(SCC(=O)Nc3ccccc3C(=O)O)nc21,inactive
13,COCCN=c1scc(-c2ccco2)n1/N=C/c1ccc(O)c(O)c1O,active: 20 µM
14,N#Cc1cccc(-c2ccc3ncnc(NCc4cccs4)c3c2)c1,"inconclusive: 22.4 µM [inhibitor, single point]"
15,CC1=C(C(=O)OC2CCCCC2)C(c2ccc(C)o2)C2=C(CC(C)(C)CC2=O)N1 (centres undefined),inactive
16,Cc1occc1C(=O)N/N=C/C=C/c1ccc(N(C)C)cc1,"inconclusive: 28.2 µM [inhibitor, single point]"
17,Nc1ccc(N2CCCCC2)c(Cl)c1,"inconclusive: 28.2 µM [inhibitor, single point]"
18,CCOC(=O)c1c[nH]c(=S)n(-c2ccccc2)c1=O,inactive
19,CCOc1cc(CC(=O)N[C@@H](CC(C)C)c2ccccc2N2CCCCC2)ccc1C(=O)O,"inconclusive: 11.2 µM [inhibitor, single point]"
20,Cc1cc(C)c2nc(-c3ccccn3)cc(C(=O)Nc3ccc(S(=O)(=O)Nc4onc(C)c4C)cc3)c2c1,"inconclusive: 31.6 µM [inhibitor, single point]"
21,CCCCC(=O)Nc1cc(C)c(O)c(-c2nc3ncccc3o2)c1,"inconclusive: 25.1 µM [inhibitor, partial curve]"
22,Cc1ccc(NC(=O)c2cc(-c3ccccc3O)n[nH]2)cc1C,"inconclusive: 39.8 µM [inhibitor, single point]"
23,N#Cc1ccc(S(=O)(=O)N2CCc3[nH]c4ccc(F)cc4c3C2)cc1,"inconclusive: 2 µM [inhibitor, partial curve, poor fit]"

row,Structure (SMILES),Potency
1,C/C(=N/OC(=O)c1ccc(C)cc1)C(=O)c1ccc(Br)cc1,"inconclusive: 0.891 µM [inhibitor, single point]"
2,CC(C)c1ccc(CNCCCSc2ncccn2)cc1,"inconclusive: 39.8 µM [inhibitor, partial curve, poor fit]"
3,O=c1c(-c2ccc(Cl)cc2)nc2cnc(N3CCNCC3)nc2n1-c1ccccc1,"inconclusive: 11.2 µM [inhibitor, partial curve]"
4,CCc1ccc(CNC(=O)c2ccc3nc(SCc4ccc(F)cc4)n(C)c3c2)cc1,inactive
5,O=C(CSc1n[nH]c(=O)[nH]c1=O)Nc1ccc2c(c1)C(=O)c1ccccc1C2=O,"inconclusive: 17.8 µM [inhibitor, partial curve]"
6,O=C(CCOc1ccccc1)N1CCN(S(=O)(=O)c2cccs2)CC1,inactive
7,Cc1nn(C)c(C)c1NC(=O)CCl,inactive
8,Cc1ccc2nc(NC(=S)NC(=O)c3ccc(OC(C)C)cc3)sc2c1,"inconclusive: 44.7 µM [inhibitor, single point]"
9,Cc1cccc(-c2n[nH]c(=S)n2/N=C/C=C/c2ccco2)c1,"inconclusive: 39.8 µM [inhibitor, single point]"
10,Cc1cc(C)c(NC(=O)CO/N=C2\CCCc3nonc32)c(C)c1,inactive
11,CC(C)c1ccc(CNCCSc2nnnn2C)cc1,inactive
12,CCN(CC)C(=S)SSC(=S)N(CC)CC,"inconclusive: 28.2 µM [inhibitor, partial curve] and inconclusive: 15.8 µM [inhibitor, partial curve]"
13,Cc1ccc(CSc2nnc(NC(=O)C3COc4ccccc4O3)s2)cc1 (centres undefined),"inconclusive: 22.4 µM [inhibitor, single point]"
14,O=C(Cc1cccs1)N/N=C/C=C\c1ccco1,inactive
15,C/C(=N\NC(=S)Nc1c(C)cccc1C)c1ccc(OC(F)F)cc1,inactive
16,CC(C)(C)c1ccc(NC(=O)COC(=O)C2(C)CC2(Cl)Cl)cc1 (centres undefined),inactive
17,COC(=O)c1ccccc1-c1ccc(/C=N/NC(=O)c2cc3ccccc3o2)o1,inactive
18,COc1ccc(NCC(O)Cn2c(C)c(C)c3ccccc32)cc1 (centres undefined),"inconclusive: 39.8 µM [inhibitor, single point]"
19,Cc1ccc(S(=O)(=O)/N=C(\c2ccccc2)N(C)S(=O)(=O)c2ccc(C)cc2)cc1,"inconclusive: 0.708 µM [inhibitor, partial curve, poor fit]"
20,N#C/C(=C\c1ccc(N2CCOCC2)o1)c1ccccc1,"inconclusive: 0.447 µM [inhibitor, full curve, poor fit]"
21,CC(=O)c1c(C)[nH]c(C(=O)Nc2nc(-c3ccc(Cl)cc3)cs2)c1C,inactive
22,Nc1nc(=S)c2ncn(C3OC(CO)C(O)C3O)c2[nH]1 (centres undefined),"inconclusive: 20 µM [inhibitor, partial curve]"
23,CCOc1ccc(C2c3c(-c4ccccc4O)n[nH]c3C(=O)N2Cc2ccncc2)cc1 (centres undefined),inactive

row,Structure (SMILES),Potency
1,O=c1c(-c2cc(F)cc(F)c2)nc2cnc(N3CCOCC3)nc2n1-c1ccccc1,"inconclusive: 39.8 µM [inhibitor, single point]"
2,OC(COc1cccc2ccccc12)CN1CCN(c2ccc(Cl)cc2)CC1 (centres undefined),"inconclusive: 12.6 µM [inhibitor, partial curve, poor fit]"
3,CCOC(=O)C(NC(C)=O)C(O)c1ccc([N+](=O)[O-])cc1 (centres undefined),"inconclusive: 39.8 µM [inhibitor, single point]"
4,Cc1cc(C)c2c(=O)n(CC(=O)NC3CCCC3)sc2n1,"inconclusive: 25.1 µM [inhibitor, partial curve]"
5,COc1ccc(NC(=S)N2CCC(C(=O)c3ccc(C)cc3)CC2)c(OC)c1,"inconclusive: 39.8 µM [inhibitor, single point]"
6,C=CCOc1ccc(/C=C/C(=O)OCC(=O)NC2CCCCCC2)cc1,"inconclusive: 1 µM [inhibitor, partial curve]"
7,O=C(/C=C/c1ccc(S(=O)(=O)N2CCOCC2)cc1)NCCCn1ccnc1,inactive
8,CCOc1ccccc1NS(=O)(=O)c1c(-c2ccc(C)cc2)csc1C(=O)OC,inactive
9,O=C1OCCN1C(=O)[C@H]1[C@H](c2ccccc2)C(c2ccccc2)=NN1c1ccc(Br)cc1,"inconclusive: 39.8 µM [inhibitor, single point]"
10,Cc1cc(C)c(C#N)c(Nc2cccc(C)c2C)n1,"inconclusive: 0.794 µM [inhibitor, single point]"
11,CCCCCCCN=C(C)c1ccccc1O,"inconclusive: 7.08 µM [inhibitor, single point]"
12,CC1(C)CC(=O)C2=C(C1)N=C1c3ccccc3C(=O)C1C2c1ccc(Cl)cc1 (centres undefined),"inconclusive: 0.631 µM [inhibitor, single point]"
13,CC[C@@H](C(=O)[C@@H](C)[C@@H](O)[C@H](C)CCc1ccc(C)c(O)c1C(=O)O)C1O[C@](CC)(C2CC[C@](O)(CC)[C@H](C)O2)C[C@@H]1C (some centres undefined),active: 15.8 µM
14,CCOC(=O)c1cnc2ccc(F)cc2c1Nc1ccc2c(c1)OCCO2,"inconclusive: 3.55 µM [inhibitor, partial curve]"
15,Cn1c(C(=O)O)cc2c(=O)n3ccccc3nc21,"inconclusive: 31.6 µM [inhibitor, partial curve]"
16,CC(C)Oc1ccc(OCCn2c(=S)[nH]c3c(N)ncnc32)cc1,"inconclusive: 22.4 µM [inhibitor, single point]"
17,O=C(NC1CCCC1)c1c(O)nc2sccn2c1=O,inactive
18,Cc1ccc(/C=c2\sc3nc(-c4cccnc4)nn3c2=O)cc1,inactive
19,CCCCC(CC)COC(=O)C(C#N)=C(c1ccccc1)c1ccccc1 (centres undefined),"inconclusive: 28.2 µM [inhibitor, partial curve]"
20,O=C(CN1CCN(S(=O)(=O)c2ccc(Cl)cc2)CC1)c1ccc(O)c(O)c1,"inconclusive: 0.708 µM [inhibitor, full curve, poor fit]"
21,COc1ccc(/C=N/n2c(-c3cccs3)n[nH]c2=S)cc1,"inconclusive: 6.31 µM [inhibitor, single point]"
22,O=C(NCC1CCCO1)c1ccc(COCC(F)(F)C(F)F)cc1 (centres undefined),"inconclusive: 0.126 µM [inhibitor, full curve, poor fit]"
23,Cc1sc2nc3ccc(NCc4ccco4)nn3c(=O)c2c1C,"inconclusive: 31.6 µM [inhibitor, single point]"

# Part of the list above, set out differently.
row	Structure (SMILES)	Potency
6	C=CCOc1ccc(/C=C/C(=O)OCC(=O)NC2CCCCCC2)cc1	inconclusive: 1 µM [inhibitor, partial curve]
7	O=C(/C=C/c1ccc(S(=O)(=O)N2CCOCC2)cc1)NCCCn1ccnc1	inactive
8	CCOc1ccccc1NS(=O)(=O)c1c(-c2ccc(C)cc2)csc1C(=O)OC	inactive
9	O=C1OCCN1C(=O)[C@H]1[C@H](c2ccccc2)C(c2ccccc2)=NN1c1ccc(Br)cc1	inconclusive: 39.8 µM [inhibitor, single point]
